Experimental data taken from paper PMC5433685.
These are yes or no findings as the source states them, for the method shown. In cells and extracts the contact can be indirect. Some results given as binding are weak or reduced against the parent protein; the word gives no strength.

The chains behind the UniProt entries cited, without tags or fusion partners. Where a name states a change or a piece, a line headed by the entry shows the natural chain unless it says otherwise.
UniProt P13569: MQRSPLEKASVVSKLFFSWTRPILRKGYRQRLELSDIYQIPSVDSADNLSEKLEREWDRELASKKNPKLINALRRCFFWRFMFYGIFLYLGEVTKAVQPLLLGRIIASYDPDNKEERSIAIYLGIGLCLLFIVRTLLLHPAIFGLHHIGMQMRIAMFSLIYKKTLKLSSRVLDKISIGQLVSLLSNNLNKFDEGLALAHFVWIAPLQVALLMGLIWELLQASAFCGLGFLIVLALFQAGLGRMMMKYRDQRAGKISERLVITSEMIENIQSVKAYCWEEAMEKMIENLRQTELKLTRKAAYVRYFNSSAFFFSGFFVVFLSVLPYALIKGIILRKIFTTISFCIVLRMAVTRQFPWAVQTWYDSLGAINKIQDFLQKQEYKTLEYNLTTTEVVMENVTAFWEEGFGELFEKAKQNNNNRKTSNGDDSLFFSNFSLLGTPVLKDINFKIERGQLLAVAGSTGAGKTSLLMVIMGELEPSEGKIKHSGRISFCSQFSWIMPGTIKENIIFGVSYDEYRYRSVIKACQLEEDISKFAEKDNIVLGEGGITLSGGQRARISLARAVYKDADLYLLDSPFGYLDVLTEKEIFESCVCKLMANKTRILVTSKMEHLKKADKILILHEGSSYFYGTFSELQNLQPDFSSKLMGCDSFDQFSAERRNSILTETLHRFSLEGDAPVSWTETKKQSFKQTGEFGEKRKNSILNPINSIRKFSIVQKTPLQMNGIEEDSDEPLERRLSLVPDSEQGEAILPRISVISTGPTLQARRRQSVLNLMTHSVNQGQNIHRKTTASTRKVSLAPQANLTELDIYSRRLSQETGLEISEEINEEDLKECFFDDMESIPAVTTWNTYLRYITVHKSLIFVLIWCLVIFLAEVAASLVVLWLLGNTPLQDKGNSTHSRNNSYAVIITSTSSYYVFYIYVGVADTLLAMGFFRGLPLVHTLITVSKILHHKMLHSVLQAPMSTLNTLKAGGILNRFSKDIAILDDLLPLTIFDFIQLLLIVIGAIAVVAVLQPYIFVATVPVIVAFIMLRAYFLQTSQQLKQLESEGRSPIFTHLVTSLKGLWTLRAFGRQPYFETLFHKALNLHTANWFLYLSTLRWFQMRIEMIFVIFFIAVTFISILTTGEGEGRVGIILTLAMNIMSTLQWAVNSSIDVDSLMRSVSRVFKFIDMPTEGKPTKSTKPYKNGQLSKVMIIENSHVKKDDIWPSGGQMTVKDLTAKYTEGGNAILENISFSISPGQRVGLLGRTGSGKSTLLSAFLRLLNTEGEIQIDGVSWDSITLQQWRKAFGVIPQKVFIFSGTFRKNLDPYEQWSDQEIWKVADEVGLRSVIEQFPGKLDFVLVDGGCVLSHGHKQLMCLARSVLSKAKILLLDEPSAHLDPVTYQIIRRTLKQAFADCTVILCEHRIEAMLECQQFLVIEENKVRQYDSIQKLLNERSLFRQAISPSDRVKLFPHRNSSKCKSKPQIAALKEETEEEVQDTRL
UniProt Q9UNE7: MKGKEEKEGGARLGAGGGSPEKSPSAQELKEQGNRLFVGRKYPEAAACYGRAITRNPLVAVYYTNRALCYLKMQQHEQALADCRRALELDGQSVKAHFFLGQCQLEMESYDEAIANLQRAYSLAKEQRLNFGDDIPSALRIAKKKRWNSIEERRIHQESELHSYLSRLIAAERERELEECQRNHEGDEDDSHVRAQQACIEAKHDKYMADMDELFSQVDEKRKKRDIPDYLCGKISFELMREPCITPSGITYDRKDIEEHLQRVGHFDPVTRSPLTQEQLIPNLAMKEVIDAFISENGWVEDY
UniProt Q99942: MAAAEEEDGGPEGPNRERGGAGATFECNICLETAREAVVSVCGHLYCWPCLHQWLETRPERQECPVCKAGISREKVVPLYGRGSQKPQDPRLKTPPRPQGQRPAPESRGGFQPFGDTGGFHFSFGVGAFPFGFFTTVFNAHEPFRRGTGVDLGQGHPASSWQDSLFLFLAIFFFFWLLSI

Key:
[1] = target: wild-type cystic fibrosis transmembrane conductance regulator (CFTR) (human) (UniProt P13569); assay: co-IP; lysates of HeLa cells expressing CFTR variants; immunoprecipitation with an anti-CFTR antibody; blots probed with anti-CHIP and anti-RMA1 antibodies; co-precipitated CHIP and RMA1 normalized to immunoprecipitated CFTR (bands B and C)
[2] = target: T2562G-CFTR (CFTR made from cDNA with the synonymous SNP T2562G, Thr854 ACT to ACG) (human) (UniProt P13569); assay: as above

Substance	binding [1]	binding [2]
C-terminus of Hsc70-interacting protein (CHIP) (from UniProt Q9UNE7 1-303) (enzyme)	binds	binds
RING domain protein RMA1 (also known as RING Finger Protein 5 [RNF5]) (from UniProt Q99942 1-180) (enzyme)	binds	binds
